Assay: general procedure: solution-phase peptide synthesis; DCC/HOBt

Substance	step yield (coupling step)	step yield (late stage modification step)
Boc-Leu-(3S,4S)-AHPPA-Leu-Phe-OMe	87% yield	–
Boc-Leu-(3S,4S)-Sta-Val-Phe-OMe	83% yield	–
N-Phenoxyacetyl-L-leucyl-4(S)-amino-3(S)-hydroxy-5-phenylpentanoyl-L-leucyl-L-phenylalanine methyl ester	–	82% yield
N-Phenoxyacetyl-L-leucyl-(3S,4S)-statyl-L-leucyl-L-phenylalanine methyl ester	–	73% yield
N-Phenoxyacetyl-L-leucyl-(3S,4S)-statyl-L-valyl-L-phenylalanine methyl ester	–	about 70% yield

— patent publication US4384994A (Merck & Co., Inc., priority 1981, dated 1983)
